In the M2OR odorant receptor database:
Changes are numbered by the printed parent chain. The entries are a selection whose mix differs from that of the whole data set. Calls are pooled over several reports, among them a noisy single-well screen. This is one part of the list.

Chains of the proteins cited; added tags and fusions are not shown. Where a name states a change or a piece, a line headed by the entry shows the natural chain unless it says otherwise. A line that says so, or that is headed by a name, gives the form on record, which may keep a tag or linker.
UniProt O43869: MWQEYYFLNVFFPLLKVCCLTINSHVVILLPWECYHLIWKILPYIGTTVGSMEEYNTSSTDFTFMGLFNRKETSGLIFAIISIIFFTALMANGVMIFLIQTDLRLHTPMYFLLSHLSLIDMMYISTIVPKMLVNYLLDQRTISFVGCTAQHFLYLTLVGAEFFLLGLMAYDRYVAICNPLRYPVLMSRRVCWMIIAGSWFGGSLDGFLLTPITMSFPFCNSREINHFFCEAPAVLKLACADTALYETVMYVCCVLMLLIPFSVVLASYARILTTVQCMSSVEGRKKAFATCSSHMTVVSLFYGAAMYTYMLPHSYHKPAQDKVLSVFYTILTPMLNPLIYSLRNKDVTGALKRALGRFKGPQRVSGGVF
UniProt A3KFT3: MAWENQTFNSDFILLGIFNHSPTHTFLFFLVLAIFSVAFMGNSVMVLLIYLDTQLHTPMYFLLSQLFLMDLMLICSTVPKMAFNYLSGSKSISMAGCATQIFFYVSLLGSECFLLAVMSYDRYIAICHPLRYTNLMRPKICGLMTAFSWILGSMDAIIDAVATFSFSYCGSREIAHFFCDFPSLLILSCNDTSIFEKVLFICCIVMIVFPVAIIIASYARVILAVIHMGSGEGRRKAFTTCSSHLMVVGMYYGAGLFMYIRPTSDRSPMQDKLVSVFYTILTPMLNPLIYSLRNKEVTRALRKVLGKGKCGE
UniProt Q8NH01: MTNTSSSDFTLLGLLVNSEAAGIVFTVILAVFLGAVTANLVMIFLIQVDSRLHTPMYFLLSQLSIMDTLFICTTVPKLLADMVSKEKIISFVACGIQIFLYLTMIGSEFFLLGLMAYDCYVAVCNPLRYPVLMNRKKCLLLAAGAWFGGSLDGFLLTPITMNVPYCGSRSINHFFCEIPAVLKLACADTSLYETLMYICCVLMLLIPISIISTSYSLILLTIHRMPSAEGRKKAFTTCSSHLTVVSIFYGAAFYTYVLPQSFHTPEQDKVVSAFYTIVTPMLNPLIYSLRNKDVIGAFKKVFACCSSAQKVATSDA
UniProt Q8NG77: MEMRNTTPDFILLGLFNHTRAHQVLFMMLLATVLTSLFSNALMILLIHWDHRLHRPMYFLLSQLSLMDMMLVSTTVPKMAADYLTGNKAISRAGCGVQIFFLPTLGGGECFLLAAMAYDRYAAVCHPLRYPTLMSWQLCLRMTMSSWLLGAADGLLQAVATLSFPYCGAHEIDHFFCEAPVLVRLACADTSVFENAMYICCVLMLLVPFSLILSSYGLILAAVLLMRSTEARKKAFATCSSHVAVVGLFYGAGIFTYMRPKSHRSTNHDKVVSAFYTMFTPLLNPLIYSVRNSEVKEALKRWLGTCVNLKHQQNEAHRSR
OR2M7, as listed by the source: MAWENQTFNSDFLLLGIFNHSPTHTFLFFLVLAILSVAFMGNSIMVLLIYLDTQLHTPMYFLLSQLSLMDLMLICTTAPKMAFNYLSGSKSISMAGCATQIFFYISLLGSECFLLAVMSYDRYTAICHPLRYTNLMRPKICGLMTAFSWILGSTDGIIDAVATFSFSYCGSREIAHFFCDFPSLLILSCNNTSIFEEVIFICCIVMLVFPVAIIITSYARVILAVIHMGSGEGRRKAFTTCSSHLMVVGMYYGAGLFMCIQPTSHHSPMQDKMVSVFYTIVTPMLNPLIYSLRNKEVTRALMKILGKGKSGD

How the values were obtained:
Settings in all cases: stereoisomer not certain
[1] = target: T1, OR2M7 (Homo sapiens) (UniProt Q8NG81)
T1 sequence (whole entry): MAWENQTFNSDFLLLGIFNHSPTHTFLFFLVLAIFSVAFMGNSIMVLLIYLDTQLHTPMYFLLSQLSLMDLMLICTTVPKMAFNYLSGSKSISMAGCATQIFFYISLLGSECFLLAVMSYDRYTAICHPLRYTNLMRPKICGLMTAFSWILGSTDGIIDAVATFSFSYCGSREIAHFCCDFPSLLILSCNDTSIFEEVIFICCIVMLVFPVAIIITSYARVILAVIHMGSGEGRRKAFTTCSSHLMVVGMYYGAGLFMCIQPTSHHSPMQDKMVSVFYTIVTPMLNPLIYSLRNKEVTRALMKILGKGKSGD
Method in brief: (§1)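 Whether a receptor–molecule pair is responsive (active) rests on the original authors' judgment that its measured signal was statistically different from baseline. Pairs without that judgment are non-responsive (inactive). Sources used varied assay methods, commonly transient luciferase assays in mammalian cell lines.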

[2] = test system: T2, OR2M7
T2 sequence (whole entry): T1 sequence (whole entry) with F35L, V78A, C178F
Method in brief: as §1

[3] = test system: T3, OR2M7; remark: listed apart in the source
T3 sequence (whole entry): T1 sequence (whole entry) with F35L, V78A, C178F, D191N
Method in brief: as §1

[4] = test system: T4, OR2S1
T4 sequence (whole entry): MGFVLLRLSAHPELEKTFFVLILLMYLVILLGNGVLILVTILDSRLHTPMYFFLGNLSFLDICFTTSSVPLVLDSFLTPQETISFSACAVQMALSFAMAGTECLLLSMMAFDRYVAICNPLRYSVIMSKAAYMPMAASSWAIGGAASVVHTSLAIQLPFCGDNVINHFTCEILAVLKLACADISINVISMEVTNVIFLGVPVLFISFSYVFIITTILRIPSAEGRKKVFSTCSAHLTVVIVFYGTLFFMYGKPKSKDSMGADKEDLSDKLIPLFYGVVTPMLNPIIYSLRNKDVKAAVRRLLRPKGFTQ
Method in brief: as §1

[5] = target: T5, OR2T10 (Homo sapiens) (UniProt Q8NGZ9)
T5 sequence (whole entry): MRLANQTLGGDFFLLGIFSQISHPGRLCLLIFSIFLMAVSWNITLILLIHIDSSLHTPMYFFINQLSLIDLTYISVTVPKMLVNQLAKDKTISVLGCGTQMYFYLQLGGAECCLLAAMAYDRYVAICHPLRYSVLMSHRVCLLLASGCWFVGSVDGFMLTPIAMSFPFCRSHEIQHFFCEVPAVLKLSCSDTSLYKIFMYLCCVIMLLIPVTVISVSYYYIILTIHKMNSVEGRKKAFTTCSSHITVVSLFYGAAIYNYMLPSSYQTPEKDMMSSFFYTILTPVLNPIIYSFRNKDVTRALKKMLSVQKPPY
Method in brief: as §1

[6] = target: OR2T1 (Homo sapiens) (UniProt O43869)
Method in brief: as §1

[7] = target: OR2M5 (Homo sapiens) (UniProt A3KFT3)
Method in brief: as §1

[8] = target: OR2S2 (Homo sapiens) (UniProt Q9NQN1)
Method in brief: as §1

[9] = target: OR2T11 (Homo sapiens) (UniProt Q8NH01)
Method in brief: as §1

[10] = target: OR2T12 (Homo sapiens) (UniProt Q8NG77)
Method in brief: as §1
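Also: active if original authors judged signal statistically different from baseline.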

For `CC(C)(O)CCCC1=CCC(C=O)CC1` (stereo unspecified), the “odorant receptor agonist call” value [1] was “inactive”.

In the case of `CC(C)C(=O)O`, the “odorant receptor agonist call” value [1] is reported as “inactive”, the “odorant receptor agonist call” value [2] is reported as “inactive” and the “odorant receptor agonist call” value [3] is reported as “inactive”. The “odorant receptor agonist call” value [4] was “inactive” and the “odorant receptor agonist call” value [5] was “inactive”.

For `CC12C=CCC1C1CCC3=CC(=O)CCC3(C)C1CC2` (stereo unspecified), the “odorant receptor agonist call” value [1] was “inactive”, the “odorant receptor agonist call” value [2] was “inactive” and the “odorant receptor agonist call” value [3] was “inactive”. For the same compound, the “odorant receptor agonist call” value [4] was “inactive” and the “odorant receptor agonist call” value [5] was “inactive”.

In the case of `CCCC(=O)O`, the “odorant receptor agonist call” value [1] is reported as “inactive”, the “odorant receptor agonist call” value [2] is reported as “inactive” and the “odorant receptor agonist call” value [3] is reported as “inactive”. The “odorant receptor agonist call” value [4] was “inactive”, the “odorant receptor agonist call” value [6] was “active” and the “odorant receptor agonist call” value [5] was “inactive”.

With `C=CCSCC=C` the “odorant receptor agonist call” value [1] was “inactive”, the “odorant receptor agonist call” value [2] was “inactive” and the “odorant receptor agonist call” value [3] was “inactive”. The “odorant receptor agonist call” value [4] was “inactive” and the “odorant receptor agonist call” value [5] was “inactive”.

In the case of `CCCCCCCCC=O`, the “odorant receptor agonist call” value [1] is reported as “inactive”.

`CC(C)=CCCC(C)=CC=O` was tested, and the “odorant receptor agonist call” value [1] was “inactive”, the “odorant receptor agonist call” value [2] was “inactive” and the “odorant receptor agonist call” value [3] was “inactive”. The “odorant receptor agonist call” value [4] was “inactive” and the “odorant receptor agonist call” value [5] was “inactive”.

For `CC=Cc1ccc(O)c(OC)c1`, the “odorant receptor agonist call” value [1] was “inactive”, the “odorant receptor agonist call” value [2] was “active” and the “odorant receptor agonist call” value [3] was “inactive”. For the same compound, the “odorant receptor agonist call” value [4] was “active” and the “odorant receptor agonist call” value [5] was “inactive”.

For `CCCCCCCCCC=O`, the “odorant receptor agonist call” value [1] was “inactive”, the “odorant receptor agonist call” value [2] was “inactive” and the “odorant receptor agonist call” value [3] was “inactive”. For the same compound, the “odorant receptor agonist call” value [4] was “inactive” and the “odorant receptor agonist call” value [5] was “inactive”.

For `CCC1(O)C2(C)CCC(C2)C1(C)C` (stereo unspecified), the “odorant receptor agonist call” value [1] was “inactive”, the “odorant receptor agonist call” value [2] was “inactive” and the “odorant receptor agonist call” value [3] was “inactive”. The “odorant receptor agonist call” value [4] was “inactive” and the “odorant receptor agonist call” value [5] was “inactive”.

In the case of `CC(C)CCC(=O)O`, the “odorant receptor agonist call” value [1] is reported as “inactive”, the “odorant receptor agonist call” value [2] is reported as “inactive” and the “odorant receptor agonist call” value [3] is reported as “inactive”. For the same compound, the “odorant receptor agonist call” value [4] was “inactive” and the “odorant receptor agonist call” value [5] was “inactive”.

`CC12C=CCC1C1CCC3CC(=O)CCC3(C)C1CC2` (stereo unspecified) was tested, and the “odorant receptor agonist call” value [7] was “inactive”, the “odorant receptor agonist call” value [1] was “inactive” and the “odorant receptor agonist call” value [2] was “inactive”. For the same compound, the “odorant receptor agonist call” value [3] was “inactive”, the “odorant receptor agonist call” value [4] was “inactive” and the “odorant receptor agonist call” value [8] was “inactive”. For the same compound, the “odorant receptor agonist call” value [6] was “inactive”, the “odorant receptor agonist call” value [5] was “inactive” and the “odorant receptor agonist call” value [9] was “inactive”. For the same compound, the “odorant receptor agonist call” value [10] was “inactive”.

With `CC(=O)OC(C)(C)C1CC=C(C)CC1` (stereo unspecified) the “odorant receptor agonist call” value [1] was “inactive”, the “odorant receptor agonist call” value [2] was “inactive” and the “odorant receptor agonist call” value [3] was “inactive”. For the same compound, the “odorant receptor agonist call” value [4] was “inactive”.

For `COc1cc(C=O)ccc1O`, the “odorant receptor agonist call” value [1] was “inactive”, the “odorant receptor agonist call” value [2] was “inactive” and the “odorant receptor agonist call” value [3] was “inactive”. For the same compound, the “odorant receptor agonist call” value [4] was “inactive”.

In the case of `CC12CCC(C1)C(C)(C)C2=O` (stereo unspecified), the “odorant receptor agonist call” value [1] is reported as “inactive”, the “odorant receptor agonist call” value [2] is reported as “inactive” and the “odorant receptor agonist call” value [3] is reported as “inactive”. The “odorant receptor agonist call” value [4] was “inactive” and the “odorant receptor agonist call” value [5] was “inactive”.

`CCCCCCCC=CC=O` was tested, and the “odorant receptor agonist call” value [1] was “inactive”, the “odorant receptor agonist call” value [2] was “active” and the “odorant receptor agonist call” value [3] was “inactive”. The “odorant receptor agonist call” value [4] was “inactive” and the “odorant receptor agonist call” value [5] was “inactive”.
